Reference: US10308899B2, “Liquid automatic dish washing detergent compositions” (Novozymes A/S, priority 2013, dated 2019)

Experiments:
Assay type in all cases: biochemical
[1] = target: Protease3 (variant of subtilisin 309) (Lederbergia lenta, UniProt P29600, INS97E); assay: Storage stability of Protease3 in liquid ADW detergent (residual protease activity, N,N-dimethylcasein hydrolysis); settings: Protease3 with inhibitor 3.4 mg/100 g (mole ratio 2.1), vs reference stored at −18° C.
Excerpt: (§1) Chemicals used as buffers and substrates were commercial products of at least reagent grade. Protease1, Protease2, Protease3, and Protease4, as used in the examples below, are subtilisin proteases. Protease1 has the amino acid sequence shown in SEQ ID NO: 1 (subtilisin 309). Protease2 has the amino acid sequence shown in SEQ ID NO: 2 (variant of subtilisin 309). Protease3 has the amino acid sequence shown in SEQ ID NO: 3 (variant of subtilisin 309). Protease4 has the amino acid sequence shown in SEQ ID NO: 4 (subtilisin BPN′).
(§2) The peptide aldehyde hydrosulfite adduct described above was dissolved in 40% propylene glycol and water was added to make a 24% w/w solution of the adduct. Three different model liquid dishwashing detergents were prepared for testing the peptide aldehyde derived inhibitor representing three different levels of strong sequestering builder.
(§3) [formula] To the detergent bases, the following amount of enzyme and inhibitor (peptide aldehyde hydrosulfite adduct described above) were added, all samples normalized to 100 g of detergent. Inhibitor amount in mg is given as the pure component (added from the 24% solution). Protease2 and Protease3 were used in concentrations of 0.04 g active enzyme protein per gram of enzyme solution. The mole ratio expresses the molar ratio of the inhibitor relative to the enzyme.
(§4) The detergents were placed in closed glasses at 37° C. for 2 weeks. Residual activity of protease was measured (by comparison to a reference stored at −18° C.) using standard enzyme analytical method (protease activity measured by hydrolysis of N,N-dimethylcasein at 40° C., pH=8.3).

[2] = target: Protease2 (variant of subtilisin 309) (Lederbergia lenta, UniProt P29600, DUP96-96/S97D); assay: Storage stability of Protease2 in liquid ADW detergent (residual protease activity, N,N-dimethylcasein hydrolysis); settings: Protease2 with inhibitor 3.4 mg/100 g (mole ratio 2.1), Example 1
Excerpt: as §1, §2, §3, §4
(§5) To detergent A from Example 1, the following amount of enzyme and different inhibitors (peptide aldehydes) were added, all samples normalized to 100 g of detergent. Inhibitor amount in mg is given as the pure component (added from the 10 mg/mL solution). Three subtilisin proteases were used: Protease1, Protease2, and Protease4, all in concentration of 0.04 g active enzyme protein per gram of enzyme solution.

[3] = target: T1, Protease1 (subtilisin 309) (Lederbergia lenta, UniProt P29600); assay: Storage stability of Protease1 in liquid ADW detergent (residual protease activity, N,N-dimethylcasein hydrolysis); settings: Protease1 with 3.3 mg peptide aldehyde/100 g (mole ratio 2.6), Detergent A, Example 2
T1 sequence (P29600 1-269): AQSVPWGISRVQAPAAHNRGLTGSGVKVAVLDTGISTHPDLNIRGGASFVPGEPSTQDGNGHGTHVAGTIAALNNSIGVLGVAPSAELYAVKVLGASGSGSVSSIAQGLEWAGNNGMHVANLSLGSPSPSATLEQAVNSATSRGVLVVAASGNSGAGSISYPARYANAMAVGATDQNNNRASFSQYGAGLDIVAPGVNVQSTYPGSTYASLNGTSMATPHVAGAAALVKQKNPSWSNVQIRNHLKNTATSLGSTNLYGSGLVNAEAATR
Excerpt: as §1
Various peptide aldehydes were produced, all with a purity >80%. The peptide aldehydes were dissolved in DMSO to a concentration of 10 mg/ml before use.
as §5, §4

| Substance | Residual protease activity after two weeks at 37° C. ([1]; Detergent A (invention)) | Residual protease activity after two weeks at 37° C. ([1]; Detergent B (invention)) | Residual protease activity after two weeks at 37° C. ([1]; Detergent C (reference)) | Residual protease activity after two weeks at 37° C. ([2]; Detergent A (invention)) | Residual protease activity after two weeks at 37° C. ([2]; Detergent B (invention)) | Residual protease activity after two weeks at 37° C. ([2]; Detergent C (reference)) | Residual protease activity after two weeks at 37° C. [3] |
| --- | --- | --- | --- | --- | --- | --- | --- |
| inhibitor: XB^1—NH—CHR—CHOH—SO3Na, X=Cbz-Gly; B^1=Ala; R=—CH2-p(C6H4)—OH; the hydrosulfite adduct of Cbz-Gly-Ala-Tyr-H (GAY; N-terminal benzyloxycarbonyl (Cbz); C-terminal Tyr as hydrosulfite adduct of the aldehyde (-NH-CHR-CHOH-SO3Na)) | ≥100% | 92% | 85% | 90% | ≥100% | ≥100% | – |
| Cbz-Gly-Ala-Tyr-H (GAY; N-terminal benzyloxycarbonyl (Cbz); C-terminal aldehyde (-H) on Tyr) [peptide aldehyde, Cbz is benzyloxycarbonyl] | – | – | – | – | – | – | 81% |
